# Measured values published in the supplement of paper PMC4683952.
# Where a name gives a salt, the structure may show the parent alone. Some of the results follow. No stated cut-off is given here; in the data, active = 2.5 or more and inactive = the rest. Single values are uncertain here, since repeats match poorly.
# Test system: Lgr5 (MarsCy1-Lgr5-EGFP, U2OS)
# Assay: cell-surface Lgr5 expression (SCi1 fluorescence, background-subtracted) relative to WT control (fold of WT control); higher = more Lgr5 at the plasma membrane
# Conditions: U2OS MarsCy1-Lgr5-EGFP stable; treatment time: overnight; library: Prestwick; 20 µM
row,SMILES,cell-surface Lgr5 expression
1,CN(C)[C@@H]1C(O)=C(C(=O)NCN2CCCC2)C(=O)[C@@]2(O)C(O)=C3C(=O)c4c(O)cccc4[C@@](C)(O)[C@H]3C[C@@H]12 [Rolitetracycline],inactive: 1.82
2,CC(NCCC(c1ccccc1)c1ccccc1)c1ccccc1 (stereo not given) [Fendiline hydrochloride],inactive: 0.993
3,CC[C@]12CCCN3CCc4c(n(c5ccccc45)[C@](O)(C(=O)OC)C1)[C@@H]32 [Epivincamine],active: 2.51
4,CC(C)NC[C@@H](O)COc1cccc2ccccc12 [(R)-Propranolol hydrochloride],inactive: 0.785
5,"CC(=O)NC1[C@@H](O)OC(CO)[C@@H](O)[C@H]1O[C@H](C)C(=O)O (stereo in doubt) [Muramic acid, N-acetyl]",inactive: 1.25
6,CCN(CC)CCc1nc(-c2ccccc2)no1 [Oxalamine citrate salt],inactive: 0.383
7,CNCC(O)c1ccc(OC(=O)C(C)(C)C)c(OC(=O)C(C)(C)C)c1 (stereo not given) [Dipivefrin hydrochloride],active: 3.68
8,"CC(C)NCC(O)c1ccc(O)c(O)c1 (single isomer, unassigned; (+)) [(+)-Isoproterenol (+)-bitartrate salt]",inactive: 2.18
9,CN1CCN(CCCN2c3ccccc3Sc3ccc(Cl)cc32)CC1 [Prochlorperazine dimaleate],inactive: 0.918
10,O=c1oc2ccccc2c(O)c1Cc1c(O)c2ccccc2oc1=O [Dicumarol],active: 2.92
11,COc1c2occc2c(OC)c2c(=O)cc(C)oc12 [Khellin],inactive: 1.39
12,Nc1cc(C(Cl)=C(Cl)Cl)c(S(N)(=O)=O)cc1S(N)(=O)=O [Clorsulon],inactive: 1.83
13,C[C@H](CCC(=O)O)[C@H]1CC[C@H]2[C@@H]3[C@H](O)C[C@@H]4C[C@H](O)CC[C@]4(C)[C@H]3CC[C@]12C [Chenodiol],inactive: 1.33
14,NNc1nncc2ccccc12 [Hydralazine hydrochloride],inactive: 0.762
15,CC(C)(C)NCC(O)COc1cccc2c1CCC(=O)N2 (stereo not given) [Carteolol hydrochloride],inactive: 1.91
16,C=C1c2c(Cl)ccc(O)c2C(=O)C2=C(O)[C@]3(O)C(=O)C(C(N)=O)=C(O)[C@@H](N(C)C)[C@@H]3[C@@H](O)[C@H]12.O=C(O)c1cc(S(=O)(=O)O)ccc1O [Meclocycline sulfosalicylate],inactive: 1.07
17,COc1ccc2c(c1OC)C(=O)O[C@@H]2[C@H]1c2c(cc3c(c2OC)OCO3)CCN1C [Noscapine],inactive: 1.98
18,CCOC(=O)O[C@]1(C(=O)COC(=O)CC)CC[C@H]2[C@@H]3CCC4=CC(=O)C=C[C@]4(C)[C@H]3[C@@H](O)C[C@@]21C [Prednicarbate],inactive: 2.44
19,C(=C\c1ccccc1)/CN1CCN(C(c2ccccc2)c2ccccc2)CC1 [Cinnarizine],inactive: -0.0254
20,O=C(C1CCCCC1)N1CC(=O)N2CCc3ccccc3C2C1 (stereo not given) [Praziquantel],inactive: 0.703

row,SMILES,cell-surface Lgr5 expression
1,COc1ccc2c(c1)c(CC(=O)O)c(C)n2C(=O)c1ccc(Cl)cc1 [Indomethacin],active: 2.55
2,Nc1nc2ccc(OC(F)(F)F)cc2s1 [Riluzole hydrochloride],inactive: 0.978
3,Oc1cc(O)c2c(c1)O[C@H](c1ccc(O)c(O)c1)[C@H](O)C2 [Epicatechin-(-)],inactive: 2.37
4,CN(C(=O)C(Cl)Cl)c1ccc(OC(=O)c2ccco2)cc1 [Diloxanide furoate],inactive: 2.31
5,Nc1ccn([C@H]2CC[C@@H](CO)O2)c(=O)n1 [Zalcitabine],inactive: 1.15
6,CN(C)CCOC(C)(c1ccccc1)c1ccccn1 (stereo not given) [Doxylamine succinate],inactive: 1.22
7,CC(=O)c1ccc2c(c1)N(CCCN(C)C)c1ccccc1S2 [Acetopromazine maleate salt],inactive: 2.07
8,Oc1c(I)cc(Cl)c2cccnc12 [Clioquinol],inactive: 1.93
9,CC[C@H](C)[C@H](N)C1=N[C@H](C(=O)N[C@@H](CC(C)C)C(=O)N[C@H](CCC(=O)O)C(=O)N[C@H](C(=O)N[C@H]2CCCCNC(=O)[C@H](CC(N)=O)NC(=O)[C@@H](CC(=O)O)NC(=O)[C@H](Cc3cnc[nH]3)NC(=O)[C@@H](Cc3ccccc3)NC(=O)[C@H]([C@@H](C)CC)NC(=O)[C@@H](CCCN)NC2=O)[C@@H](C)CC)CS1 [Bacitracin],inactive: 1.37
10,CN1CCN(CCCN2c3ccccc3Sc3ccc(C(F)(F)F)cc32)CC1 [Trifluoperazine dihydrochloride],inactive: 1.3
11,COc1ccc(OC)c(C(O)CNC(=O)CN)c1 (stereo not given) [Midodrine hydrochloride],inactive: 1.37
12,Oc1ccc(/C=C/c2cc(O)cc(O)c2)cc1 [Resveratrol],active: 2.6
13,Cc1c(N(C)C)c(=O)n(-c2ccccc2)n1C [Amidopyrine],inactive: 1.04
14,NC[C@@H]1O[C@H](O[C@H]2[C@@H](O)[C@H](O[C@@H]3[C@@H](O)[C@H](N)C[C@H](N)[C@H]3O[C@H]3O[C@H](CO)[C@@H](O)[C@H](O)[C@H]3N)O[C@@H]2CO)[C@H](N)[C@@H](O)[C@@H]1O [Paromomycin sulfate],inactive: 1.87
15,COc1ccccc1OCC(O)CO (stereo not given) [Guaifenesin],inactive: 1.85
16,CC(=O)[C@H]1CC[C@H]2[C@@H]3C=CC4=CC(=O)CC[C@@]4(C)[C@@H]3CC[C@]12C [Dydrogesterone],active: 2.55
17,Cc1cccc(C)c1OCC(C)N (stereo not given) [Mexiletine hydrochloride],inactive: 1.38
18,O=c1ccc2cc(O)c(O)cc2o1 [Esculetin],inactive: 1.27
19,O=C(OCC(O)CO)c1ccccc1Nc1ccnc2cc(Cl)ccc12 (stereo not given) [Glafenine hydrochloride],inactive: 1.94
20,CC(C(=O)O)c1ccc(-c2ccccc2)c(F)c1 (stereo not given) [Flurbiprofen],inactive: 1.7

# Look-ups from the results shown.
# Value for O=c1ccc2cc(O)c(O)cc2o1 [Esculetin] under cell-surface Lgr5 expression: inactive: 1.27
# Value for Oc1ccc(/C=C/c2cc(O)cc(O)c2)cc1 [Resveratrol] under cell-surface Lgr5 expression: active: 2.6
